PubChem BioAssay AID720505 – Drosophila RNAi Screening Center | 2013

- Test: 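Genes needed for store-operated calcium entry in fly cells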 (primary screen)
- Cell system: Drosophila S2R+ cells
- Knock-down reagent: long dsRNA against Drosophila genes
- Treatment: thapsigargin (2 µM) in calcium-free buffer to empty internal stores, then 2 mM calcium added back
- Read-out: 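Stores emptied by 2 µM thapsigargin without calcium, then 2 mM calcium re-added; fluo-4 fluorescence followed by FLIPR in 384-well plates, per-well averaged endpoint, raw; two screen passes, some wells retested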
- Direction: calcium signal: higher = more calcium entry after store depletion
- Hit rule: 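Knock-downs counted as hits when calcium entry dropped relative to STIM1 positive and Rho1 negative controls present on each plate; roughly 1500 genes called, with reductions of differing size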
- Meaning of the calls: active = called as lowering calcium entry; inactive = not called
In all, the deposit lists about 20,000 reagents; below is an unselected part of those that have a named target and a result. In the full data, about 2,100 (10%) are marked active. 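Raw plate signals without normalisation; calls rest on control-based scores that were not deposited; replicate 2 separates called from uncalled poorly.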 The numbers tell different reagents against one gene apart. The record does not give: the amount of reagent, the time to read-out.

After knock-down of CG42850 (retired record), the screen gave calcium signal, replicate 1 = 136; calcium signal, replicate 2 = 155; inactive.
Knock-down of CG7271 came out at: calcium signal, replicate 1 = 89.3; calcium signal, replicate 2 = 193; inactive.
Knock-down of CG13884 resulted in: calcium signal, replicate 1 = 136; calcium signal, replicate 2 = 107; inactive.
Silencing of ari-1 #1 gave: calcium signal, replicate 1 = 102; calcium signal, replicate 2 = 127; inactive.
Depletion of ari-1 #2 came out at: calcium signal, replicate 1 = 159; calcium signal, replicate 2 = 104; inactive.
CG13564 gave calcium signal, replicate 1 = 92; calcium signal, replicate 2 = 169; inactive.
Silencing of Polr3F came out at: calcium signal, replicate 1 = 174; calcium signal, replicate 2 = 192; inactive.
Uggt scored calcium signal, replicate 1 = 114; calcium signal, replicate 2 = 69.6; inactive.
Knock-down of CG17108 #1 resulted in: calcium signal, replicate 1 = 68.6; calcium signal, replicate 2 = 82.5; active.
For CG17108 #2 the deposit lists calcium signal, replicate 1 = 119; calcium signal, replicate 2 = 256; inactive.
Silencing of GatA gave: calcium signal, replicate 1 = 160; calcium signal, replicate 2 = 152; inactive.
CG1172 #1 showed calcium signal, replicate 1 = 129; calcium signal, replicate 2 = 106; inactive.
For CG1172 #2, the values are calcium signal, replicate 1 = 99.2; calcium signal, replicate 2 = 227; inactive.
PMP34 scored calcium signal, replicate 1 = 109; calcium signal, replicate 2 = 203; inactive.
Against CG33296, the values are calcium signal, replicate 1 = 101; calcium signal, replicate 2 = 98.3; inactive.
Depletion of Ilp6 resulted in: calcium signal, replicate 1 = 59.7; calcium signal, replicate 2 = 98; active.
CG34447 gave calcium signal, replicate 1 = 198; calcium signal, replicate 2 = 89.6; inactive.
CG14743 gave calcium signal, replicate 1 = 88.6; calcium signal, replicate 2 = 187; inactive.
After knock-down of CG3984, the record shows calcium signal, replicate 1 = 94.8; calcium signal, replicate 2 = 177; inactive.

Targets above whose gene name starts with A or a (2):
ari-1 #1 | calcium signal, replicate 1: 102; calcium signal, replicate 2: 127; Call: inactive
ari-1 #2 | calcium signal, replicate 1: 159; calcium signal, replicate 2: 104; Call: inactive
